Assay results from the supplement of paper PMC8728848.
The other results are listed elsewhere or left out.

Tests used:
Assay in all cases: glycan array binding signal (z-score within array); higher = stronger binding
Conditions in all cases: glycan notation: IUPAC condensed, linker removed
[1] = target: Neu5Ac(a2-3)Gal(b1-4)GlcNAc(b1-3)[Neu5Ac(a2-3)Gal(b1-4)GlcNAc(b1-6)]GalNAc
In short: (§1)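 The Consortium for Functional Glycomics database supplied 3228 glycan arrays, of which those lacking an available protein sequence were dropped. The binding signal, a within-array Z-score, was averaged across arrays of the same protein sequence and across linkers. Negative scores can be read as non-binding.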

[2] = target: Neu5Ac(a2-3)Gal(b1-4)GlcNAc(b1-6)GalNAc
In short: as §1

[3] = target: Neu5Ac(a2-3)Gal(b1-4)GlcNAc(b1-6)[Gal(b1-3)]GalNAc
In short: as §1

[4] = target: Neu5Ac(a2-3)Gal(b1-4)GlcNAc(b1-6)[Neu5Ac(a2-3)Gal(b1-3)]GalNAc
In short: as §1

[5] = target: Neu5Ac(a2-3)Gal(b1-4)GlcNAc6S
In short: as §1

[6] = target: Neu5Ac(a2-3)Gal(b1-4)[Fuc(a1-3)]GlcNAc
In short: as §1

[7] = target: Neu5Ac(a2-3)Gal(b1-4)[Fuc(a1-3)]GlcNAc(b1-2)Man
In short: as §1

[8] = target: Neu5Ac(a2-3)Gal(b1-4)[Fuc(a1-3)]GlcNAc(b1-3)Gal
In short: as §1

[9] = target: Neu5Ac(a2-3)Gal(b1-4)[Fuc(a1-3)]GlcNAc(b1-3)Gal(b1-4)GlcNAc
In short: as §1

[10] = target: Neu5Ac(a2-3)Gal(b1-4)[Fuc(a1-3)]GlcNAc(b1-3)Gal(b1-4)[Fuc(a1-3)]GlcNAc(b1-3)Gal(b1-4)[Fuc(a1-3)]GlcNAc
In short: as §1

[11] = target: Neu5Ac(a2-3)Gal(b1-4)[Fuc(a1-3)]GlcNAc(b1-3)GalNAc
In short: as §1

[12] = target: Neu5Ac(a2-3)Gal(b1-4)[Fuc(a1-3)]GlcNAc(b1-6)[Gal(b1-3)]GalNAc
In short: as §1

[13] = target: Neu5Ac(a2-3)Gal(b1-4)[Fuc(a1-3)]GlcNAc(b1-6)[Neu5Ac(a2-3)Gal(b1-3)]GalNAc
In short: as §1

[14] = target: Neu5Ac(a2-3)Gal(b1-4)[Fuc(a1-3)]GlcNAc6S
In short: as §1

[15] = target: Neu5Ac(a2-3)Gal6S(b1-4)GlcNAc
In short: as §1

[16] = target: Neu5Ac(a2-3)Gal6S(b1-4)[Fuc(a1-3)]GlcNAc
In short: as §1

Neu5Ac(a2-3)GalNAc = target: Neu5Ac(a2-3)GalNAc
In short: as §1

[17] = target: Neu5Ac(a2-3)GalNAc(b1-4)GlcNAc
In short: as §1

[18] = target: Neu5Ac(a2-3)[GalNAc(b1-4)]Gal(b1-4)Glc
In short: as §1

[19] = target: Neu5Ac(a2-3)[GalNAc(b1-4)]Gal(b1-4)GlcNAc
In short: as §1

[20] = target: Neu5Ac(a2-3)[GalNAc(b1-4)]Gal(b1-4)GlcNAc(b1-3)GalNAc
In short: as §1

[21] = target: Neu5Ac(a2-3)[Neu5Ac(a2-6)]GalNAc
In short: as §1

Neu5Ac(a2-6)Gal = target: Neu5Ac(a2-6)Gal
In short: as §1

[22] = target: Neu5Ac(a2-6)Gal(b1-3)GlcNAc(b1-3)[Gal(b1-4)GlcNAc(b1-6)]Gal(b1-4)Glc
In short: as §1

Neu5Ac(a2-6)Gal(b1-4)Glc = target: Neu5Ac(a2-6)Gal(b1-4)Glc
In short: as §1

[23] = target: Neu5Ac(a2-6)Gal(b1-4)GlcNAc
In short: as §1

[24] = target: Neu5Ac(a2-6)Gal(b1-4)GlcNAc(b1-2)Man
In short: as §1

[25] = target: Neu5Ac(a2-6)Gal(b1-4)GlcNAc(b1-2)Man(a1-3)Man(b1-4)GlcNAc(b1-4)GlcNAc
In short: as §1

[26] = target: Neu5Ac(a2-6)Gal(b1-4)GlcNAc(b1-2)Man(a1-3)[Gal(b1-4)GlcNAc(b1-2)Man(a1-6)]Man(b1-4)GlcNAc(b1-4)GlcNAc
In short: as §1

[27] = target: Neu5Ac(a2-6)Gal(b1-4)GlcNAc(b1-2)Man(a1-3)[GlcNAc(b1-2)Man(a1-6)]Man(b1-4)GlcNAc(b1-4)GlcNAc
In short: as §1

B1: BT4246 (Bacteroides thetaiotaomicron), Q89ZX5 (protein)
chain: MGSSHHHHHHENLYFQGHMASDYLDVVPPEQPNIDDAMSSPTRALGFLYSCYGGVSTDLPSAYLGEINSTTDEYVLPYSWNTDGYWGAYAFNTASSTNQDWLWGTTYQYIGQCYLFLQKLENAGSDIASDAEKEQWRAECQFLVAYYHFATLRRYGPIPITDSYIPMDTPTSEYNGRFHFDYCVDWIANQLDEAAKVLPANRTVTNEWGRATSTIAKAVKARLLLYAASPLWNGSFPYPNWQNENFETPGYGKALVSNTYDKSKWERALAACQEALTLATTSGDRELYDDDEYYSRQSLNLPFVPGVADVEDNKEFLKNVMKMRYAVSTRESEGNKEIIWGLSNQFDFYSRYPLRILKKSDGTWHAGYSGVSPTLYTFEHFYTANGKLPEKDLDFTPSSEWFESAGISSREDIIKLNVGREPRFYAWMAFDGGDYGTKFAAGSPLKLEMRNSEMHGYNPSLFNRDHSVTGFLTQKFVDPVTEFYTAGGSTSGTSAPTILFRLAELYLNVAECHAALGNTQEAIDALNPVRERAGIPKLTLADITNNMTIKDWVHNERFVELWNEGHRFFDVRRWAEGAKYFGANKREGLNAEVQSPTFEEFNKRTTVDAPYVWENRMYLNPVFYNEVYKNPQMVQAPGY
glycan array binding signal (z-score) [1]: -0.339
glycan array binding signal (z-score) [2]: -0.438
glycan array binding signal (z-score) [3]: 0.775
glycan array binding signal (z-score) [4]: 0.712
glycan array binding signal (z-score) [5]: 0.095
glycan array binding signal (z-score) [6]: -0.492
glycan array binding signal (z-score) [7]: 0.232
glycan array binding signal (z-score) [8]: -1.17
glycan array binding signal (z-score) [9]: -0.818
glycan array binding signal (z-score) [10]: -0.944
glycan array binding signal (z-score) [11]: 4.68
glycan array binding signal (z-score) [12]: 2.47
glycan array binding signal (z-score) [13]: 0.541
glycan array binding signal (z-score) [14]: -0.707
glycan array binding signal (z-score) [15]: -0.718
glycan array binding signal (z-score) [16]: -0.225
glycan array binding signal (z-score) (Neu5Ac(a2-3)GalNAc): -0.505
glycan array binding signal (z-score) [17]: 0.153
glycan array binding signal (z-score) [18]: 0
glycan array binding signal (z-score) [19]: 0.511
glycan array binding signal (z-score) [20]: -0.441
glycan array binding signal (z-score) [21]: 0.772
glycan array binding signal (z-score) (Neu5Ac(a2-6)Gal): -0.826
glycan array binding signal (z-score) [22]: -0.315
glycan array binding signal (z-score) (Neu5Ac(a2-6)Gal(b1-4)Glc): -0.168
glycan array binding signal (z-score) [23]: 0.129
glycan array binding signal (z-score) [24]: -0.045
glycan array binding signal (z-score) [25]: -1.05
glycan array binding signal (z-score) [26]: -0.095
glycan array binding signal (z-score) [27]: -0.47
